Laboratory results: PubChem BioAssay AID1224826 (NIAID, 2016)
This is a random part of about 17,000 deposited reagents. About 1,110 of them (6.6%) were called active. 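Active means lowered or raised reporter signal; replicate intensities are raw and not normalised per plate.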 Unmarked entries are inactive.

Test: 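Genes that change LPS-induced Tnf promoter activity in mouse macrophages when knocked down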 (primary screen)
System: RAW264.7 G9 macrophages from mouse bearing reporters for p65 (GFP) and the Tnf promoter (mCherry)
Reagent: siRNA pool against mouse genes, 100 nM
Timing: 16 h of LPS stimulation, after 2 days of siRNA transfection
Challenge: bacterial lipopolysaccharide (Salmonella minnesota R595), 10 ng/ml
Measurement: 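Nuclear mCherry signal of the Tnf promoter reporter measured by imaging after background removal, scaled to each plate median and turned into robust z-scores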
Scale: Tnf reporter robust z-score: higher = stronger Tnf promoter reporter signal after LPS; Tnf reporter intensity: higher = stronger Tnf promoter reporter signal
Hit rule: 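a well counts as active at a score of -1.3 or below (Tlr4 knock-down control median) or above 3 (raised signal); controls and wells holding fewer than 50 cells are excluded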
Meaning of the calls: active = Tnf reporter clearly lowered or raised; inactive = no clear change in Tnf reporter

target gene	PubChem SID	Tnf reporter robust z-score	fewer than 50 cells in well	Tnf reporter intensity, replicate 1	Tnf reporter intensity, replicate 2
Or12d17	SID315480475	0.9	enough cells in well	316	126
Dkk1	SID315466328	-0.94	enough cells in well	121	83
Smcr8	SID315479366		fewer than 50 cells per well; well left out of calls	67.9	40.5
Bsn	SID315465676	-0.05	enough cells in well	93.2	160
Prdx2	SID315469645	-1.62 (active)	enough cells in well	123	77
Fndc3a	SID315481090	-0.2	enough cells in well	185	158
Gkn2	SID315472340	1.73	enough cells in well	159	99.6
Spock1	SID315469434	0.58	enough cells in well	121	118
Pex12	SID315476388	-0.94	enough cells in well	183	110

Entries listed so far whose gene name starts with S or s (2):
target gene	PubChem SID	Tnf reporter robust z-score	fewer than 50 cells in well	Tnf reporter intensity, replicate 1	Tnf reporter intensity, replicate 2
Smcr8	SID315479366		fewer than 50 cells per well; well left out of calls	67.9	40.5
Spock1	SID315469434	0.58	enough cells in well	121	118

Further records follow:
target gene	PubChem SID	Tnf reporter robust z-score	fewer than 50 cells in well	Tnf reporter intensity, replicate 1	Tnf reporter intensity, replicate 2
Ergic1	SID315473040	-0.84	enough cells in well	176	50.6
Nampt	SID315471961	0.38	enough cells in well	258	215
Dock11	SID315475225	-0.84	enough cells in well	143	120
Slc35e1	SID315480911	0.11	enough cells in well	206	131
Prss48	SID315481733	0.45	enough cells in well	280	191
Or52e5	SID315480402	-0.49	enough cells in well	72.2	111
Bcorl1	SID315481295	1.05	enough cells in well	262	301
Eif2b2	SID315478145	-0.23	enough cells in well	204	221
Adcyap1	SID315465303	0.91	enough cells in well	252	262
Mrps31	SID315471754	2.35	enough cells in well	295	252
Lrr1	SID315473874	-0.58	enough cells in well	107	101
Ostm1	SID315466919		fewer than 50 cells per well; well left out of calls	89.3	71.5
Or51f23b	SID315480711		fewer than 50 cells per well; well left out of calls	77.3	78.9
Dnah8	SID315466349	0.58	enough cells in well	301	86.1
Tbck	SID315476811	4.36 (active)	enough cells in well	303	362
Tbck	SID315480960	-0.12	enough cells in well	185	154
